Results as given in article PMC10719266.
Results are given in words; binding and its absence hold for the method and conditions named. Binding seen in cells or lysates may run through a third protein. Here binding means that the protein was enriched with, or labelled near, the bait; the list need not be complete. Tags and fused reporters may be left off the sequences shown.

Chains of the proteins cited; added tags and fusions are not shown.
UniProt P19474: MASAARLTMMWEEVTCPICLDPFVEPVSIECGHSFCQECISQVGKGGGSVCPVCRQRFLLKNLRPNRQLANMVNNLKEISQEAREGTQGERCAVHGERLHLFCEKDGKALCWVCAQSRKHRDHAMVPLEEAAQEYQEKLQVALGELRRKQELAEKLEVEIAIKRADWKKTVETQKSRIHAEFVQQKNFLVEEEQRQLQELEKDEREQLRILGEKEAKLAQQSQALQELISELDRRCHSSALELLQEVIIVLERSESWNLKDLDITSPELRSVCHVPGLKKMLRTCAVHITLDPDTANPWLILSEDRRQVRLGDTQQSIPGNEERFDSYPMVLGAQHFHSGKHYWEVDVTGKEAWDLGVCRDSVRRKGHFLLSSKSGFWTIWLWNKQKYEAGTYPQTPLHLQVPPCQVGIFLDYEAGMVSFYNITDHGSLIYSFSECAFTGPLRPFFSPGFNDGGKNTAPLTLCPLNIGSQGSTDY

Molecular target: T1, Flag-tagged FOXD1 (human) (UniProt Q16676)
T1 sequence: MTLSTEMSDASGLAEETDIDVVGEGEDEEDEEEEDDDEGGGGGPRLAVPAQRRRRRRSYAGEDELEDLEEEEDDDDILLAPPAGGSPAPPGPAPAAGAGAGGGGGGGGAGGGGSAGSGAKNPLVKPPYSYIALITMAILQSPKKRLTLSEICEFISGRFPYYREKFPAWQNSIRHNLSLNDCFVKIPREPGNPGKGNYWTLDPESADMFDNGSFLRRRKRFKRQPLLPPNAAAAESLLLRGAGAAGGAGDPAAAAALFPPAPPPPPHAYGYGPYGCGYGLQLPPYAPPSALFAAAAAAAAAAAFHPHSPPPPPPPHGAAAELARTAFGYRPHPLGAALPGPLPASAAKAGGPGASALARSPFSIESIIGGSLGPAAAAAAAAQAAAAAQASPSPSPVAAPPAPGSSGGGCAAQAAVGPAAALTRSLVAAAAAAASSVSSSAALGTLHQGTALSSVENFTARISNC
Test: affinity purification with mass spectrometry; Flag-tagged FOXD1 expressed in HEK293T cells in the presence of ubiquitin; immunoprecipitation, then nano-LC-MS/MS (LTQ-Orbitrap Velos)

binding: binds
Substance: TRIM21 (from UniProt P19474 1-475)
